Data published in the supplement of paper PMC11098740.
Where a name gives a salt, the structure may show the parent alone. The list shows a part of the results. Many values rest on one well or one pass, so single values are uncertain.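 The assay uses a mixed pool of 41 HAP1 clones in which 61 cancer-associated proteins bear intron-inserted fluorescent tags, and clones are distinguished by image pattern. Results are compared against DMSO-treated control wells, and the BRD4 degrader dBET6 is the positive control.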

The chains behind the UniProt entries cited, without tags or fusion partners.
UniProt O14980, whole entry: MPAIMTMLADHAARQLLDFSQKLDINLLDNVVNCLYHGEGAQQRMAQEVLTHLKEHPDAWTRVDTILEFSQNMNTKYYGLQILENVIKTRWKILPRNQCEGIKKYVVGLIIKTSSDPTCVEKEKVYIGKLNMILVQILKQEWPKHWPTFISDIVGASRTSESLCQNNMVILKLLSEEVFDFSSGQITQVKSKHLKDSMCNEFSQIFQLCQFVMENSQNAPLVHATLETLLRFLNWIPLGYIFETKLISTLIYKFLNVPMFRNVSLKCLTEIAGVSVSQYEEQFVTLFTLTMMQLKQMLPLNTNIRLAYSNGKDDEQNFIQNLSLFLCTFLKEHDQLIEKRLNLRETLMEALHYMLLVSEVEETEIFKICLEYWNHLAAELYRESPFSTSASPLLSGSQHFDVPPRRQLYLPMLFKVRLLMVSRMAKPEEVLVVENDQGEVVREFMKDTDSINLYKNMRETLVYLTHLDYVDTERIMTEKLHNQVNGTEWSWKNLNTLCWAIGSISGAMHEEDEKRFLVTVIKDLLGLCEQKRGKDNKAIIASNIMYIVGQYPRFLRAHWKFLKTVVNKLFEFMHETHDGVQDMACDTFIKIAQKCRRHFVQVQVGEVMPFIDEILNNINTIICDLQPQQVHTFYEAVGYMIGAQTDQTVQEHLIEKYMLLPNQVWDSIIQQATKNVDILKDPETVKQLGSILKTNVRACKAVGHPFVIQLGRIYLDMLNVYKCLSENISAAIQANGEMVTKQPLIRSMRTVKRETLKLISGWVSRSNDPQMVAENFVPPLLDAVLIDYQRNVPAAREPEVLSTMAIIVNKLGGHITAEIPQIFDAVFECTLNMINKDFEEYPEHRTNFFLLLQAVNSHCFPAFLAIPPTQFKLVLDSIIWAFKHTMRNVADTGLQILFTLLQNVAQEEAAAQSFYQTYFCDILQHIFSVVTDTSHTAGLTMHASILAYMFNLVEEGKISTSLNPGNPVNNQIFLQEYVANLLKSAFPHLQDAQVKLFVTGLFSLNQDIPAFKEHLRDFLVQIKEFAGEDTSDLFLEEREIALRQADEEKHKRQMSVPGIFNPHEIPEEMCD

Molecular target: XPO1 (intron 15 mScarlet tag, HAP1) (UniProt O14980)
Assay: XPO1 fluorescence intensity change vs DMSO (log2 fold change); higher = more XPO1 protein
Details: 6 h

SMILES | XPO1 fluorescence intensity change (log2)
C[N+](C)(C)CCOC(N)=O [Carbachol] (9.99977 µM) | 0.228
CC[C@]1(O)C[C@H]2CN(CCc3c([nH]c4ccccc34)[C@@](C(=O)OC)(c3cc4c(cc3OC)N(C=O)[C@H]3[C@@](O)(C(=O)OC)[C@H](OC(C)=O)[C@]5(CC)C=CCN6CC[C@]43[C@@H]65)C2)C1 [Vincristine] (0.246914 µM) | 0.0178
CCC(C)n1ncn(-c2ccc(N3CCN(c4ccc(OCC5COC(Cn6cncn6)(c6ccc(Cl)cc6Cl)O5)cc4)CC3)cc2)c1=O (stereo unspecified) [Itraconazole] (10 µM) | -0.0467
CC1(C)N=C(N)N=C(N)N1c1ccc(Cl)cc1 [Cycloguanil] (11.4 µM) | 0.0106
c1cnc2cc3c(cc2n1)[C@@H]1CNC[C@H]3C1 [Varenicline] (10 µM) | -0.0245
C[C@@H]1O[C@@H]1P(=O)(O)O [Fosfomycin] (10 µM) | 0.11
CCCC(CCC)C(=O)O [Valproic Acid] (10 µM) | 0.134
OCCN1C[C@H](O)[C@@H](O)[C@H](O)[C@H]1CO [Miglitol] (10 µM) | 0.0895
CC[N+](C)(C)Cc1ccccc1Br [Bretylium Tosylate] (17 µM) | 0.0276
CO/N=C(\C(=O)N[C@@H]1C(=O)N2C(C(=O)O)=C(CSc3nnnn3C)CS[C@H]12)c1csc(N)n1 [Cefmenoxime] (10 µM) | 0.219
CC[C@]1(O)C[C@@H]2CN(CCc3c([nH]c4ccccc34)[C@@](C(=O)OC)(c3cc4c(cc3OC)N(C)[C@H]3[C@@](O)(C(=O)OC)[C@H](OC(C)=O)[C@]5(CC)C=CCN6CC[C@]43[C@@H]65)C2)C1 [Vinblastine Sulfate] (0.73008 µM) | 0.102

2 entries from above, comma-delimited:
SMILES,XPO1 fluorescence intensity change (log2)
C[N+](C)(C)CCOC(N)=O [Carbachol] (9.99977 µM),0.228
CC[N+](C)(C)Cc1ccccc1Br [Bretylium Tosylate] (17 µM),0.0276
